In article PMC10897448 one finds binding data, which are given here for 9 molecules.

Sequences of proteins named here, by UniProt entry; tags and fusion partners are left off. Residues count along the entry.
UniProt P19484: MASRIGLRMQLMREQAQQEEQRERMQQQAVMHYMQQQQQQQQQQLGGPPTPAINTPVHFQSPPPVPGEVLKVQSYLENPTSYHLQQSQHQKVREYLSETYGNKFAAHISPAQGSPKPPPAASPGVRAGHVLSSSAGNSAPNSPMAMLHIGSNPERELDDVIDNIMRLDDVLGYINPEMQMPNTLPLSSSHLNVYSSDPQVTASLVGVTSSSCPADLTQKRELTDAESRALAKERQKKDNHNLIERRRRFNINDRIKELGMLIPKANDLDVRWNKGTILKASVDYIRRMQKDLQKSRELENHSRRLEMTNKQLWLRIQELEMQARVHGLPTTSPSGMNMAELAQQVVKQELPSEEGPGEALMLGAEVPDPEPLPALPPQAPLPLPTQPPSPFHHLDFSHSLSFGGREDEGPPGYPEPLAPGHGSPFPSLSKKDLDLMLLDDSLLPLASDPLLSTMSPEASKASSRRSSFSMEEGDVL
UniProt P38646, residues 47-679: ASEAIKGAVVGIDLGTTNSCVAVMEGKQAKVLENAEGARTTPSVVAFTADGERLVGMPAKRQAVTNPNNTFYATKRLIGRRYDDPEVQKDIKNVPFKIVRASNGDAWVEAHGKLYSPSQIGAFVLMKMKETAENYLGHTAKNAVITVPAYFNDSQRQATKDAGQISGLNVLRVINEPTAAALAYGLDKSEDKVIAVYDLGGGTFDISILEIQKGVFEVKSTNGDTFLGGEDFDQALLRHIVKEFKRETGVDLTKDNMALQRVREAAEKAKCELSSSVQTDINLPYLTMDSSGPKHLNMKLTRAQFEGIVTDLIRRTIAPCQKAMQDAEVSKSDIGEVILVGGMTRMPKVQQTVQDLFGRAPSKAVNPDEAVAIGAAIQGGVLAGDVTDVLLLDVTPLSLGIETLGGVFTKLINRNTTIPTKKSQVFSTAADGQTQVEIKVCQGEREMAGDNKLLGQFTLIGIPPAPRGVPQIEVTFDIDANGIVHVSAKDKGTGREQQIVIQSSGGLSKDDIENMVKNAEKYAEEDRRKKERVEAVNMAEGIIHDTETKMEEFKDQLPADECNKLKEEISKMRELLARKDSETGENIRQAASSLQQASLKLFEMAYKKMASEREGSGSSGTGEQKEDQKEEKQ
UniProt P31946: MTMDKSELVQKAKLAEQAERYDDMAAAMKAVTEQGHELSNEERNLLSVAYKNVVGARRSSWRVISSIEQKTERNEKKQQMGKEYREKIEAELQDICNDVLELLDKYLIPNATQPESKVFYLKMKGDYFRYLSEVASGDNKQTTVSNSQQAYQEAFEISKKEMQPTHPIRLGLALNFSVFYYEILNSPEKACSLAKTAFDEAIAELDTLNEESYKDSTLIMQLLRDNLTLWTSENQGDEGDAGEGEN
UniProt P62258: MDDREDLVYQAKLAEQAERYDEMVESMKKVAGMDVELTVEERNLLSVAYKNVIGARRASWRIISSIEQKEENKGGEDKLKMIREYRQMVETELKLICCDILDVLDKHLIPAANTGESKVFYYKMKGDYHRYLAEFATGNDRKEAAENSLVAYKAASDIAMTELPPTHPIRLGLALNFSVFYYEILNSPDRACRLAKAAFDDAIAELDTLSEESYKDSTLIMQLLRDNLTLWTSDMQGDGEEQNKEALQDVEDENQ
UniProt P63104: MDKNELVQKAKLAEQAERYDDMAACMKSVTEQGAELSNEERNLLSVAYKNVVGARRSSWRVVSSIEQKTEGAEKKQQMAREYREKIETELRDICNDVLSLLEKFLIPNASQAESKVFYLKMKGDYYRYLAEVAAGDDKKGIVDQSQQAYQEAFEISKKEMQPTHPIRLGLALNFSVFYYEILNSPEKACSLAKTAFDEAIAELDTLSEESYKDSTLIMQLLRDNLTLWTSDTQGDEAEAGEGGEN
UniProt P40763: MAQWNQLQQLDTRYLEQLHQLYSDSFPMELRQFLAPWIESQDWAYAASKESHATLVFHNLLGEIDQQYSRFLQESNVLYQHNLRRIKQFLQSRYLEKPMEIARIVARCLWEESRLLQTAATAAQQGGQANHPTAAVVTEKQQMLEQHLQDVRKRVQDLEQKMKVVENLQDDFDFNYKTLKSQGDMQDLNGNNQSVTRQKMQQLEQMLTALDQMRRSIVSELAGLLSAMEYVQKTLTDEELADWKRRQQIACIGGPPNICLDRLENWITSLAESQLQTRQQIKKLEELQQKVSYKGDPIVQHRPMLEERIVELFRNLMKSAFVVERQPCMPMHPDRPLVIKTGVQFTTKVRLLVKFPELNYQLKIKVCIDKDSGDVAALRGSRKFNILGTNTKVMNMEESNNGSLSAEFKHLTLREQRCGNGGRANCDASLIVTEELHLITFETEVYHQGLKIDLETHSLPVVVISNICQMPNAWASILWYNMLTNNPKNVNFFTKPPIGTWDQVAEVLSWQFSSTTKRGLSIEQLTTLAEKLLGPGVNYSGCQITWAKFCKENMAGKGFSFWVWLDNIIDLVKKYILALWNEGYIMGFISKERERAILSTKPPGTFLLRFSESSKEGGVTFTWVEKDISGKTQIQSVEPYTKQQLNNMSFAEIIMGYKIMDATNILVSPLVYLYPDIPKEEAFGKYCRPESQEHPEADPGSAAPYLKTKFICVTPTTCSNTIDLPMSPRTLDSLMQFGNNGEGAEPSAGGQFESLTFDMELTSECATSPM

The chains are these.
B1: YWHAH (14-3-3 protein) (protein, UniProt Q04917 1-246)
chain: MGDREQLLQRARLAEQAERYDDMASAMKAVTELNEPLSNEDRNLLSVAYKNVVGARRSSWRVISSIEQKTMADGNEKKLEKVKAYREKIEKELETVCNDVLSLLDKFLIKNCNDFQYESKVFYLKMKGDYYRYLAEVASGEKKNSVVEASEAAYKEAFEISKEQMQPTHPIRLGLALNFSVFYYEIQNAPEQACLLAKQAFDDAIAELDTLNEDSYKDSTLIMQLLRDNLTLWTSDQQDEEAGEGN
B2: LONP1 (found in the TFEB-FLAG interactome) (enzyme, UniProt P36776 68-959)
chain: FWEASSRGGGAFSGGEDASEGGAEEGAGGAGGSAGAGEGPVITALTPMTIPDVFPHLPLIAITRNPVFPRFIKIIEVKNKKLVELLRRKVRLAQPYVGVFLKRDDSNESDVVESLDEIYHTGTFAQIHEMQDLGDKLRMIVMGHRRVHISRQLEVEPEEPEAENKHKPRRKSKRGKKEAEDELSARHPAELAMEPTPELPAEVLMVEVENVVHEDFQVTEEVKALTAEIVKTIRDIIALNPLYRESVLQMMQAGQRVVDNPIYLSDMGAALTGAESHELQDVLEETNIPKRLYKALSLLKKEFELSKLQQRLGREVEEKIKQTHRKYLLQEQLKIIKKELGLEKDDKDAIEEKFRERLKELVVPKHVMDVVDEELSKLGLLDNHSSEFNVTRNYLDWLTSIPWGKYSNENLDLARAQAVLEEDHYGMEDVKKRILEFIAVSQLRGSTQGKILCFYGPPGVGKTSIARSIARALNREYFRFSVGGMTDVAEIKGHRRTYVGAMPGKIIQCLKKTKTENPLILIDEVDKIGRGYQGDPSSALLELLDPEQNANFLDHYLDVPVDLSKVLFICTANVTDTIPEPLRDRMEMINVSGYVAQEKLAIAERYLVPQARALCGLDESKAKLSSDVLTLLIKQYCRESGVRNLQKQVEKVLRKSAYKIVSGEAESVEVTPENLQDFVGKPVFTVERMYDVTPPGVVMGLAWTAMGGSTLFVETSLRRPQDKDAKGDKDGSLEVTGQLGEVMKESARIAYTFARAFLMQHAPANDYLVTSHIHLHVPEGATPKDGPSAGCTIVTALLSLAMGRPVRQNLAMTGEVSLTGKILPVGGIKEKTIAAKRAGVTCIVLPAENKKDFYDLAAFITEGLEVHFVEHYREIFDIAFPDEQAEALAVER
B3: YWHAQ (14-3-3 protein) (protein, UniProt P27348 1-245)
chain: MEKTELIQKAKLAEQAERYDDMATCMKAVTEQGAELSNEERNLLSVAYKNVVGGRRSAWRVISSIEQKTDTSDKKLQLIKDYREKVESELRSICTTVLELLDKYLIANATNPESKVFYLKMKGDYFRYLAEVACGDDRKQTIDNSQGAYQEAFDISKKEMQPTHPIRLGLALNFSVFYYEILNNPELACTLAKTAFDEAIAELDTLNEDSYKDSTLIMQLLRDNLTLWTSDSAGEECDAAEGAEN
B4: YWHAG (14-3-3 protein) (protein, UniProt P61981 1-247)
chain: MVDREQLVQKARLAEQAERYDDMAAAMKNVTELNEPLSNEERNLLSVAYKNVVGARRSSWRVISSIEQKTSADGNEKKIEMVRAYREKIEKELEAVCQDVLSLLDNYLIKNCSETQYESKVFYLKMKGDYYRYLAEVATGEKRATVVESSEKAYSEAHEISKEHMQPTHPIRLGLALNYSVFYYEIQNAPEQACHLAKTAFDDAIAELDTLNEDSYKDSTLIMQLLRDNLTLWTSDQQDDDGGEGNN

Results are given in words; binding and its absence hold for the method and conditions named. Binding seen in cells or lysates may run through a third protein. Here binding means that the protein was enriched with, or labelled near, the bait; the list need not be complete. For part of these data: Tags and fused reporters may be left off the sequences shown.

The target of one experiment is WT-TFEB FLAG (ectopically expressed transcription factor EB) (UniProt P19484). Nature of the experiment: affinity purification with mass spectrometry.
Take B1: the binding result is recorded as “binds”.
Regarding B2, the binding result is reported as “binds”.
As for B3, the binding entry is “binds”.
Turning to B4, the binding result is reported as “binds”.

The target is the same in a further experiment. Nature of the experiment: affinity purification with mass spectrometry. The source holds these as a separate data set.
In the case of “Heat Shock Protein Family A (Hsp70) Member 9 (HSPA9) (from UniProt P38646 47-679)”, the binding result is listed as “binds”.
As to “YWHAB (14-3-3 protein) (from UniProt P31946 1-246)”, the binding entry was “binds”.
As to “YWHAE (14-3-3 protein) (from UniProt P62258 1-255)”, the binding result was “binds”.
On the same count and under the same terms, the entry for “YWHAZ (14-3-3 protein) (from UniProt P63104 1-245)” is “binds”.
On to “signal transducer and activator of transcription 3 (STAT3) (from UniProt P40763 1-770)”, for which the binding result is “binds”.
